{
  "source": "PubChem BioAssay AID624369",
  "about": "(Broad Institute, 2012)",
  "note": "The inconclusive results got no clear call from the source; some entries with a clear call stand among them for comparison. Calls of active or inactive are those of the source.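 Rule for the calls: active = fitted curve crosses a set inhibition level at a dose up to twice the top tested dose; inconclusive = flat curve with moderate inhibition, or an unreliable curve fit; inactive = the rest, including signal rising instead of falling.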",
  "data": [
    {"test": "inhibitors of TNFa-stimulated NF-kB luciferase reporter, dose response, selectivity assay for EBV LMP1 NF-kB inhibitor project, HEK293 LMP1 reporter cells, dry powder, set 2 (AID 624369)", "settings": "HEK293 LMP1 TES2 NF-kB luciferase reporter, 16 h; at 35 µM (top of the series) unless noted", "values": [
      {"smiles": "Cc1noc(C)c1S(=O)(=O)Nc1ccc2c(c1)C(=O)N([C@H](C)CO)C[C@@H](C)[C@H](CN(C)Cc1ccc(C(F)(F)F)cc1)OCCCC[C@@H](C)O2", "activity change, negative = inhibition": "inconclusive: 43.9%"},
      {"smiles": "C[C@@H]1CN([C@H](C)CO)S(=O)(=O)c2ccc(C#C[C@@H](C)O)cc2O[C@H]1CN(C)Cc1ccc(-c2ccccc2)cc1", "activity change, negative = inhibition": "inconclusive: 28.1% [at 16 µM]"},
      {"smiles": "Cc1noc(C)c1S(=O)(=O)Nc1ccc2c(c1)C(=O)N([C@@H](C)CO)C[C@@H](C)[C@@H](CN(C)Cc1ccc(C(F)(F)F)cc1)OCCCC[C@H](C)O2", "activity change, negative = inhibition": "inconclusive: 79.4%"},
      {"smiles": "C[C@H]1CN([C@@H](C)CO)C(=O)Cc2cc(NC(=O)Cc3ccccc3)ccc2O[C@@H]1CN(C)Cc1ccc(C(F)(F)F)cc1", "activity change, negative = inhibition": "inactive: 13.6%"},
      {"smiles": "C[C@@H]1CN([C@@H](C)CO)C(=O)c2c(c3ccccc3n2C)-c2ccccc2CO[C@@H]1CN(C)C(=O)Nc1ccc(F)cc1", "activity change, negative = inhibition": "inactive: 3.56%"},
      {"smiles": "Cc1noc(C)c1S(=O)(=O)Nc1ccc2c(c1)C(=O)N([C@@H](C)CO)C[C@H](C)[C@@H](CN(C)Cc1ccc(C(F)(F)F)cc1)OCCCC[C@H](C)O2", "activity change, negative = inhibition": "inconclusive: 25.2%"},
      {"smiles": "C[C@@H](NC(=O)C[C@@H]1C=C[C@@H](NC(=O)Cc2ccccn2)[C@@H](CO)O1)c1ccccc1", "activity change, negative = inhibition": "inactive: -4.92%"},
      {"smiles": "CCC(=O)N1Cc2cc(C(=O)Nc3nccs3)nc(-c3cccc(-c4ccccc4OC)c3)c2[C@H]1CCO", "activity change, negative = inhibition": "inconclusive: 21.5%"},
      {"smiles": "C[C@H](CO)N1C[C@H](C)[C@@H](CN(C)C(=O)Nc2ccc(F)cc2)OCc2ccccc2-c2c(n(C)c3ccccc23)C1=O", "activity change, negative = inhibition": "inconclusive: 34.8%"},
      {"smiles": "C[C@@H](NC(=O)C[C@@H]1C=C[C@@H](NC(=O)Cc2ccccn2)[C@H](CO)O1)c1ccccc1", "activity change, negative = inhibition": "inactive: -0.205%"},
      {"smiles": "C[C@@H]1CN([C@@H](C)CO)C(=O)c2c(c3ccccc3n2C)-c2ccccc2CO[C@H]1CN(C)C(=O)Nc1ccc(F)cc1", "activity change, negative = inhibition": "inconclusive: 59.9%"},
      {"smiles": "Cc1noc(C)c1S(=O)(=O)Nc1ccc2c(c1)C(=O)N([C@@H](C)CO)C[C@@H](C)[C@H](CN(C)Cc1ccc(C(F)(F)F)cc1)OCCCC[C@H](C)O2", "activity change, negative = inhibition": "inconclusive: 33.5% [at 30 µM]"},
      {"smiles": "Cc1noc(C)c1S(=O)(=O)Nc1ccc2c(c1)C(=O)N([C@H](C)CO)C[C@H](C)[C@@H](CN(C)Cc1ccc(C(F)(F)F)cc1)OCCCC[C@@H](C)O2", "activity change, negative = inhibition": "inconclusive: 24.2%"},
      {"smiles": "C[C@H](CO)N1C[C@H](C)[C@H](CN(C)Cc2ccc(C(F)(F)F)cc2)Oc2ccc(NC(=O)Cc3ccccc3)cc2CC1=O", "activity change, negative = inhibition": "inconclusive: 36.4%"},
      {"smiles": "Cc1noc(C)c1S(=O)(=O)Nc1ccc2c(c1)C(=O)N([C@H](C)CO)C[C@H](C)[C@H](CN(C)Cc1ccc(C(F)(F)F)cc1)OCCCC[C@H](C)O2", "activity change, negative = inhibition": "inconclusive: 79%"},
      {"smiles": "COc1cccc(S(=O)(=O)N(C)C[C@@H]2Oc3cc(C4=CCCCC4)ccc3S(=O)(=O)N([C@@H](C)CO)C[C@H]2C)c1", "activity change, negative = inhibition": "inactive: -6.23%"},
      {"smiles": "O=C(Cc1ccccn1)NCC[C@@H]1CC[C@H](NC(=O)Nc2ccc(Cl)cc2)[C@@H](CO)O1", "activity change, negative = inhibition": "inactive: 0.116%"},
      {"smiles": "CN(C)c1ccc2c(c1)[C@@H]1C[C@@H](CC(=O)NCc3ccc(Oc4ccccc4)cc3)O[C@@H](CO)[C@@H]1O2", "activity change, negative = inhibition": "inactive: -31.8%"},
      {"smiles": "C[C@H]1CN([C@@H](C)CO)C(=O)c2c(c3ccccc3n2C)-c2ccccc2CO[C@H]1CN(C)C(=O)Nc1ccc(F)cc1", "activity change, negative = inhibition": "inconclusive: 162%"},
      {"smiles": "Cc1noc(C)c1S(=O)(=O)Nc1ccc2c(c1)C(=O)N([C@H](C)CO)C[C@H](C)[C@H](CN(C)Cc1ccc(C(F)(F)F)cc1)OCCCC[C@@H](C)O2", "activity change, negative = inhibition": "inactive: 62.1%"},
      {"smiles": "Cc1noc(C)c1S(=O)(=O)Nc1ccc2c(c1)C(=O)N([C@H](C)CO)C[C@H](C)[C@@H](CN(C)Cc1ccc(C(F)(F)F)cc1)OCCCC[C@H](C)O2", "activity change, negative = inhibition": "inconclusive: 63.4%"},
      {"smiles": "Cc1noc(C)c1S(=O)(=O)Nc1ccc2c(c1)C(=O)N([C@H](C)CO)C[C@@H](C)[C@@H](CN(C)Cc1ccc(C(F)(F)F)cc1)OCCCC[C@@H](C)O2", "activity change, negative = inhibition": "inconclusive: 44.3%"},
      {"smiles": "Cc1noc(C)c1S(=O)(=O)Nc1ccc2c(c1)C(=O)N([C@H](C)CO)C[C@@H](C)[C@H](CN(C)Cc1ccc(C(F)(F)F)cc1)OCCCC[C@H](C)O2", "activity change, negative = inhibition": "inconclusive: 99%"},
      {"smiles": "C[C@H](CO)N1C[C@H](C)[C@@H](CN(C)Cc2ccc(C(F)(F)F)cc2)Oc2ccc(NC(=O)Cc3ccccc3)cc2CC1=O", "activity change, negative = inhibition": "inconclusive: 33.2%"},
      {"smiles": "Cc1noc(C)c1S(=O)(=O)Nc1ccc2c(c1)C(=O)N([C@H](C)CO)C[C@@H](C)[C@@H](CN(C)Cc1ccc(C(F)(F)F)cc1)OCCCC[C@H](C)O2", "activity change, negative = inhibition": "inconclusive: 94.2%"},
      {"smiles": "Cc1noc(C)c1S(=O)(=O)Nc1ccc2c(c1)C(=O)N([C@@H](C)CO)C[C@@H](C)[C@H](CN(C)Cc1ccc(C(F)(F)F)cc1)OCCCC[C@@H](C)O2", "activity change, negative = inhibition": "inconclusive: 30.3%"},
      {"smiles": "C[C@H](CO)N1C[C@H](C)[C@H](CN(C)Cc2ccc(Oc3ccccc3)cc2)Oc2ccc(NC(=O)CCCN(C)C)cc2C1=O", "activity change, negative = inhibition": "inactive: 20.6%"},
      {"smiles": "Cc1noc(C)c1S(=O)(=O)Nc1ccc2c(c1)C(=O)N([C@@H](C)CO)C[C@H](C)[C@H](CN(C)Cc1ccc(C(F)(F)F)cc1)OCCCC[C@H](C)O2", "activity change, negative = inhibition": "inconclusive: 38.9%"},
      {"smiles": "O=C(Nc1ccc(C(F)(F)F)cc1)Nc1ccc2c(c1)[C@H]1C[C@@H](CC(=O)N3CCc4ccccc4C3)O[C@@H](CO)[C@H]1O2", "activity change, negative = inhibition": "inactive: 0.365%"},
      {"smiles": "C[C@@H]1CN([C@@H](C)CO)S(=O)(=O)c2ccc(C#C[C@@H](C)O)cc2O[C@H]1CN(C)Cc1ccc(-c2ccccc2)cc1", "activity change, negative = inhibition": "inconclusive: 3.12%"}
    ]}
  ]
}
